Measurements as given in PubChem BioAssay AID504467 (National Center for Advancing Translational Sciences (NCATS), 2011).
The whole screen tested about 330,000 compounds, of which about 7,700 (2.3%) were called active. Inconclusive results, whose numbers are uncertain, are shown with a selection of clear calls. Calls come from the whole dose curve; as a rule, active = well fitted inhibition curve with a large enough effect; inconclusive = small, poorly fitted or top-dose-only effect, or effect the other way; inactive = flat fitted curve, though single readings scatter. Potencies beside an inconclusive call are fits to weak or partial responses and may not hold up.
% is set by controls: 0 for no effect and ±100 for the full control effect; potency is the fitted concentration of half-maximal effect.

Assay: qHTS screen for small molecules that inhibit ELG1-dependent DNA repair in human embryonic kidney (HEK293T) cells expressing luciferase-tagged ELG1; note: nearly all actives have a fitted effect of over 55% in size
Details: HEK293T ELG1-luciferase reporter, luminescence, 16 h, DNA damage induced by 5-fluorouridine; activity change, negative = inhibition: at 46.1 µM (top of the series)
How it was run: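 Overnight (16 hr) co-exposure of 2,000 cells/well to 5-fluorouridine and compound at 37 °C preceded detection. Luciferase was quantified via ONE-Glo luminescence; loss of signal denotes inhibition.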
For `COc1ccccc1CNC(=O)C1CCCN(S(=O)(=O)c2ccc3c(c2)C(C)(C)C(=O)N3C)C1` (centres undefined), the “activity change, negative = inhibition” value was inactive: -22.9%. With `Cc1nc(NC(=O)COC(=O)C2=NNC(=O)CC2)c(Cl)cc1Cl` the Potency was inconclusive: 29.1 µM [activator, single point]. For `O=C(Nc1ccc(Cl)cc1C(=O)NCC1CCCO1)c1ccc(Cl)cc1Cl` (centres undefined), the Potency was inconclusive: 14.6 µM [inhibitor, partial curve, poor fit]. For `CCC(=O)Nc1cccc(NC(=O)c2cccnc2)c1`, the Potency was inconclusive: 20.6 µM [activator, partial curve, poor fit]. In the case of `O=C1C2C3C=CC(C3=C3CCCCC3)C2C(=O)N1c1ccccc1` (centres undefined), the “activity change, negative = inhibition” value is reported as inactive: -12%. For `CC(C)c1cc(C(=O)NC2CCCc3c2cnn3-c2ccccc2F)no1` (centres undefined), the Potency was inconclusive: 29.1 µM [activator, single point]. With `CNc1ccc(OC)cc1-n1cnc(-c2ccc([N+](=O)[O-])cc2)c1` the Potency was inconclusive: 16.4 µM [activator, single point]. With `C=CCn1cc(C(=O)NCCCOCC)c(=O)c2cc(S(=O)(=O)N(CC)CC)ccc21` the Potency was active: 18.4 µM. In the case of `COc1ccc(S(=O)(=O)N2CCN(c3nn(C)c(=O)n(C)c3=O)CC2)cc1`, the Potency is reported as inconclusive: 7.3 µM [inhibitor, partial curve, poor fit]. With `COc1c(O)ccc(/C=N\NC(=O)c2ccc3c(c2)OCO3)c1[N+](=O)[O-]` the Potency was inconclusive: 23.1 µM [activator, partial curve, poor fit]. In the case of `CCCn1c(Oc2ccccc2)nc2c1c(=O)n(C)c(=O)n2C`, the Potency is reported as inconclusive: 13 µM [inhibitor, partial curve]. For `CC1CC1c1ccc(/C=C(\C#N)C(=O)Nc2ccccc2Cl)o1` (centres undefined), the Potency was inconclusive: 16.4 µM [activator, partial curve]. With `O=C(CCc1nnc(C2CCCCC2)o1)N1CCN(c2ccccc2F)CC1` the Potency was inconclusive: 16.4 µM [activator, partial curve]. With `Nc1nonc1-n1nnc(C(=O)N/N=C/c2ccc(OCc3cccc(Cl)c3)cc2)c1CN1CCCCC1` the “activity change, negative = inhibition” value was inactive: 0%. For `O=C(N/N=C/c1ccco1)C1CC1c1ccccc1` (centres undefined), the “activity change, negative = inhibition” value was inactive: 12.2%. For `CCOC(=O)N1CCN(S(=O)(=O)c2ccc(C(=O)Nc3nc4ccccc4s3)cc2)CC1`, the “activity change, negative = inhibition” value was inactive: -14.7%. In the case of `CCOc1ccc(NC(=S)Nc2ccc(C)c([N+](=O)[O-])c2)cc1`, the “activity change, negative = inhibition” value is reported as inactive: -7.94%. With `CC(=O)Nc1ccc2nc(CN3CCC(CO)(CCc4ccccc4)CC3)ccc2c1` the “activity change, negative = inhibition” value was inactive: 4.71%. With `CC1CC(C)CN(c2ncc3c(n2)CC(c2ccc(Cl)cc2)CC3=O)C1` (centres undefined) the “activity change, negative = inhibition” value was inactive: -14.3%. In the case of `COc1ccc(NC(=O)CC2Nc3cccc4cccc(c34)NC2=O)cc1` (centres undefined), the Potency is reported as active: 23.1 µM. With `CCCC(=O)Nc1ccc2nc(C)n(Cc3ccccc3Cl)c(=O)c2c1` the Potency was inconclusive: 16.4 µM [inhibitor, partial curve]. In the case of `CCN=C1SCC(=O)N1c1ccc(OC)cc1`, the Potency is reported as inconclusive: 14.6 µM [activator, partial curve, poor fit]. For `CN(C)c1ccc(/C=C(/C#N)C(=O)NCc2ccccc2)o1`, the Potency was inconclusive: 11.6 µM [activator, partial curve]. In the case of `O=C(CSc1ncccc1C(=O)O)c1cccc(C(F)(F)F)c1`, the Potency is reported as inconclusive: 20.6 µM [activator, partial curve]. For `CCOC(=O)C1=C(COC(=O)/C=C/c2cccc(F)c2)NC(=O)NC1C` (centres undefined), the “activity change, negative = inhibition” value was inactive: -6.96%. With `CN1CCN(CC(=O)O)CC1` the Potency was inconclusive: 16.4 µM [activator, partial curve, poor fit]. In the case of `CCCCOc1ccc(/C=C/C(=O)Nc2ccc([N+](=O)[O-])cc2C)cc1`, the Potency is reported as inconclusive: 1.84 µM [inhibitor, partial curve, poor fit]. In the case of `O=C(CCl)N(C/C=C/c1ccccc1)c1ccc2c(c1)OCCO2`, the Potency is reported as inconclusive: 14.6 µM [activator, partial curve]. With `COc1cc(OC)cc(-c2c(C#Cc3ccsc3)c3cc(-c4ccc(N(C)C)nc4)ccc3n2C)c1` the “activity change, negative = inhibition” value was inactive: 22.6%. In the case of `Cn1c(=O)n(C)c2cc([N+](=O)[O-])c(N3CCN(C(=O)c4ccccc4Br)CC3)cc21`, the Potency is reported as inconclusive: 10.3 µM [inhibitor, partial curve]. In the case of `CCOC(=O)c1ccc(NC(=O)c2cccnc2)cc1`, the Potency is reported as inconclusive: 7.94 µM [activator, partial curve, poor fit]. In the case of `C=CCNC(=O)c1ccc(C2SCC(=O)N2Cc2ccccc2)cc1` (centres undefined), the “activity change, negative = inhibition” value is reported as inactive: 9.62%. With `CCN(CC)C(=O)N1CCC(NC(=O)c2ccc(C(C)(C)C)cc2)CC1` the Potency was active: 20.6 µM. In the case of `O=C(CNC(=O)C(c1ccccc1)c1ccccc1)N/N=C\c1ccc(C(=O)O)cc1`, the Potency is reported as inconclusive: 11.6 µM [activator, single point]. In the case of `COc1cc(C#Cc2c(-c3cncn3C)n(C)c3ccc(-c4ccc5cc[nH]c5c4)cc23)cc(OC)c1`, the Potency is reported as inconclusive: 29.1 µM [inhibitor, single point]. With `CC(C)=CC(=O)OCc1cc([N+](=O)[O-])cc2c1OCOC2` the Potency was inconclusive: 23.1 µM [activator, partial curve]. For `Nc1nc(CSCCO)nc(Nc2ccc(F)cc2)n1`, the Potency was inconclusive: 8.2 µM [activator, partial curve, poor fit]. With `Cc1cc(C)n(CCC(=O)N/N=C/c2ccc(O)cc2)n1` the “activity change, negative = inhibition” value was inactive: 4.74%. With `CCn1c(SCC(=O)Nc2ccc(C(C)=O)cc2)nc2c([nH]c3ccccc32)c1=O` the Potency was inconclusive: 32.6 µM [activator, partial curve, poor fit]. For `Cc1cc2nc(-c3cccnc3SCC(=O)NC3CC3)[nH]c2cc1C`, the Potency was inconclusive: 16.4 µM [activator, partial curve]. In the case of `Cc1ccc2nc(C3CCCN(C(=S)Nc4cccc(C)c4C)C3)[nH]c2c1` (centres undefined), the Potency is reported as inconclusive: 29.1 µM [inhibitor, single point]. In the case of `O=c1[nH]ncn1-c1ccccc1`, the “activity change, negative = inhibition” value is reported as inactive: 4.59%. For `COc1ccc(CN2C(=O)C(C)S/C2=N/N=C/c2ccco2)cc1` (centres undefined), the Potency was inconclusive: 20.6 µM [activator, partial curve]. In the case of `CCn1c(=O)n(CC)c2cc(N)ccc21`, the Potency is reported as inconclusive: 20.6 µM [activator, single point].
